# According to PubChem BioAssay AID595 (National Center for Advancing Translational Sciences (NCATS), 2007):
# About 310 (0.44%) of roughly 71,000 compounds were called active. Inconclusive results, whose numbers are uncertain, are shown with a selection of clear calls. The call rests on the fitted dose curve; in most records, active means well fitted curve in either direction with a large enough effect; inconclusive means small, poorly fitted or top-dose-only effect, or another doubt; inactive means flat fitted curve, though single readings scatter. A potency beside an inconclusive call is a rough fit, not a confirmed value.
# Tested on: Hsp90 C-terminal peptide / TPR2A (Hop) interaction, human
# Experiment: qHTS Assay for Disrupters of an Hsp90 Co-Chaperone Interaction
# Details: AlphaScreen TPR2A-His6 binding biotin-Hsp90 C-terminal peptide; activity change, negative = inhibition: at 57 µM (top of the series) unless noted
# On the % scale 0 is the no-effect control and ±100 the full control effect; potency means the concentration at half of the fitted maximal effect.
SMILES,Potency,"activity change, negative = inhibition"
c1n[nH]c(NC2=NCCC2)n1,"inconclusive: 31.6 µM [inhibitor, single point]",
CCCn1c2ccccc2c2nc3ccccc3nc21,"inconclusive: 31.6 µM [activator, single point]",
OC(CN1CCN(c2ccccn2)CC1)Cn1c2ccccc2c2ccccc21 (stereo unspecified),,inactive
NC(=O)CSc1cn(CCNC(=O)c2cccs2)c2ccccc12,,inactive
O=C(OCC(=O)c1ccccc1Br)c1ccccn1,active: 25.1 µM,
CCOC(=O)N1CCC2(O)CCCCC2C1c1ccc(F)cc1 (stereo unspecified),,inconclusive: 43.4%
O=C(Oc1ccc(Cl)c2cccnc12)N1CCOCC1,,inconclusive: 45.2%
CCC1CCCCN1C(=O)COC(=O)c1cc2ccccc2cc1O (stereo unspecified),,inactive
Brc1ccc2[nH]c3nc(SCCN4CCOCC4)nnc3c2c1,,inactive
CC1=C2[C@@H]([C@H](C)CC[C@H]2/C=C(\C)C(=O)O)[C@H](O)C1,,inactive
Cc1occc1C(=O)N1CCN(C(c2ccccc2)c2ccccc2)CC1,,inactive
Cc1cccc(Nc2nc(N)nc(CN3CCN(c4ccc(F)cc4)CC3)n2)c1,"inconclusive: 31.6 µM [inhibitor, single point]",
Cc1ccc(-c2ccc(OCC(=O)N3CCOCC3)cc2)cc1,,inactive
CN(c1ccccc1)C(c1ccc(F)cc1)c1nnnn1C1CCCC1 (stereo unspecified),"inconclusive: 31.6 µM [activator, single point]",
O=c1c(-c2ccccc2)nc2cnc(N3CCOCC3)nc2n1CCc1ccccc1,active: 5.01 µM [activator],
N#Cc1nc(Cc2cccc3ccccc23)oc1N1CCOCC1,"inconclusive: 25.1 µM [inhibitor, partial curve]",
Cc1cc(C)nc(NS(=O)(=O)c2ccccc2)n1,,inconclusive: 52.8%
CC(C)C[C@@H](CC(=O)N[C@@H](CCCN)CC(=O)N[C@@H]1CCNC[C@H]1C(=O)N[C@H](CC(=O)N[C@@H](CCC(=O)O)CC(=O)O)CC(C)C)NC(=O)[C@@H]1CNCC[C@H]1N,,inactive
COc1ccc(N2CCN(C(=O)c3ccc(C)c(Cl)c3)CC2)cc1,,inactive
O=c1sc2ccccc2n1COc1ccccc1,"inconclusive: 31.6 µM [activator, single point]",
COc1cccc(-c2ccc3ncnc(N4CCOCC4)c3c2)c1,,inactive
COc1cc(C(Nc2ccccn2)c2ccc3ccc(C)nc3c2O)cc(OC)c1O (stereo unspecified),"inconclusive: 20 µM [inhibitor, single point]",

# By substructure, the entries above containing a COOH group
SMILES,Potency,"activity change, negative = inhibition"
CC1=C2[C@@H]([C@H](C)CC[C@H]2/C=C(\C)C(=O)O)[C@H](O)C1,,inactive
CC(C)C[C@@H](CC(=O)N[C@@H](CCCN)CC(=O)N[C@@H]1CCNC[C@H]1C(=O)N[C@H](CC(=O)N[C@@H](CCC(=O)O)CC(=O)O)CC(C)C)NC(=O)[C@@H]1CNCC[C@H]1N,,inactive

# Additional compounds follow:

SMILES,Potency,"activity change, negative = inhibition"
O=C1c2ccccc2C(=O)C1c1ccc2ccccc2n1,,inconclusive: 31.4%
CC(C)Cn1nc(NC(=O)C2CCCO2)c2cc3ccccc3nc21 (stereo unspecified),"inconclusive: 20 µM [activator, partial curve]",
CCOC(=S)SCC(=O)O,,inactive: -2.02% [at 11 µM]
CC(C)c1cc(Nc2cccc(O)c2)cc(C(C)C)c1O,"inconclusive: 25.1 µM [inhibitor, single point]",
CCOC(=O)C1CCN(C(=O)CSc2cc(=O)n(C)c3ccccc23)CC1,,inconclusive: 51.7%
CCCCN(C(=O)NC(=O)Nc1nc2ccc(OC)cc2s1)S(C)(=O)=O,,inactive
Cc1nc2sccn2c(=O)c1CCN1CCC(=C(c2ccccc2)c2ccc(F)cc2)CC1,,inconclusive: 28.8%
O=C(O)c1cccc(C(=O)O)n1,"inconclusive: 31.6 µM [inhibitor, single point]",
CCN(CC)C(c1ccc(F)cc1)c1nnnn1C1CCCCC1 (stereo unspecified),,inactive
COc1ccccc1-c1nc(C#N)c(N2CCc3ccccc3C2)o1,"inconclusive: 25.1 µM [inhibitor, partial curve]",
CCOC(=O)c1cccc(NC(=O)Nc2cc(OC)ccc2OC)c1,,inconclusive: 28%
CN=C(Nc1cc(C)nn1CCC#N)c1ccccc1F,,inconclusive: 47.7%
COCCn1c(=O)c(-c2cccc(C#N)c2)nc2cnc(OCc3ccccc3)nc21,,inactive
O=C(Cn1cccc1C(=O)c1ccccc1)NCCCN1CCOCC1,,inconclusive: 37.3%
Cc1ccc2nc(N3CCC(C(=O)O)CC3)nc(-c3ccccc3)c2c1,"inconclusive: 25.1 µM [activator, single point]",
O=C(c1cnn2c(C(F)(F)F)cc(-c3ccco3)nc12)N1CCc2ccccc2C1,,inactive
CCOC(=O)N1CCN(c2cc(=O)n(-c3ccccc3Cl)c(=O)[nH]2)CC1,,inconclusive: 49.9%
CC(=O)N1C(=O)C2(C(C#N)=C(N)Oc3n[nH]c(-c4ccccn4)c32)c2ccccc21 (stereo unspecified),"inconclusive: 25.1 µM [inhibitor, partial curve]",
Cc1cc(NC(=O)Nc2ccc(N(C)C)cc2)c2cc(F)cc(F)c2n1,active: 7.94 µM,
O=C(N/N=C\c1ccc2c(c1)CCC2)c1ccccc1O,,inactive: 0.173% [at 11 µM]
CCCCCn1c(N)c(C#N)c2nc3ccccc3nc21,,inactive
CCOC(=O)c1[nH]c2c(c1C)C(=O)CC(c1ccc(F)cc1)C2 (stereo unspecified),,inactive

SMILES,Potency,"activity change, negative = inhibition"
CC(C)CC(/C(O)=C(\C#N)c1nc2ccccc2[nH]1)N1C(=O)c2ccccc2C1=O (stereo unspecified),,inactive
Nc1nc(NC(=O)CCCC(=O)O)nn1-c1ccccc1,"inconclusive: 31.6 µM [inhibitor, single point]",
NCCNCCNCCNCCN,active: 5.01 µM,
Cc1nc(C)c(C(=O)C2=C(O)C(=O)N(CCN3CCOCC3)C2c2cccs2)s1 (stereo unspecified),,inconclusive: 51.1%
COc1ccc(-n2c(SCC(=O)Nc3ccc(C(=O)O)cc3)nnc2-c2cccs2)cc1,,inconclusive: 37.5%
O=C(Nc1ccc(-c2cn3ccsc3n2)cc1)c1ccc(F)c(S(=O)(=O)N2CCOCC2)c1,,inactive
CCOC(=O)c1ccc(NC(=O)CC2COc3ccccc3O2)cc1 (stereo unspecified),,inconclusive: 74.3%
Clc1ccccc1Cn1nnc2c(NCC3CC3)ncnc21,,inconclusive: 78.2%
CCNc1ncc2ncc(=O)n(C3CC3)c2n1,,inconclusive: 90%
CCNc1ncc2nc(-c3cn(C)c4ccccc34)c(=O)n(Cc3cccc(OC)c3)c2n1,,inconclusive: 180%
O=C(Nc1cccc2ccccc12)OC1C=CS(=O)(=O)C1 (stereo unspecified),"inconclusive: 31.6 µM [inhibitor, single point]",
COCCNC(=O)CN(C(=O)CCC(=O)Nc1cc(C)on1)c1ccccc1C,,inconclusive: 44.5%
CCN(CC)c1ccc(-n2cc3c(=O)n(C)c(=O)n(C)c3c2)cc1,"inconclusive: 31.6 µM [inhibitor, single point]",
COC(=O)Cn1cc(C(=O)c2cccs2)c2ccccc21,,inconclusive: 74.7%
Cc1c(NC(=O)C(C)OC(=O)CC2Sc3ccccc3NC2=O)c(=O)n(-c2ccccc2)n1C (stereo unspecified),,inconclusive: 36.5%
OC1(c2ccc(F)cc2)CCN(Cc2ccccc2)C1 (stereo unspecified),,inconclusive: 47.1%
CCOC(=O)c1c(NC(=O)CN2CCOCC2)sc2c1CCCC2,,inconclusive: 45.3%
COc1ccc(-c2noc(CSc3nc4ccccc4c(=O)n3-c3ccccc3)n2)cc1OC,,inactive
O=C(O)CN(CC(=O)O)CC(=O)O,"inconclusive: 25.1 µM [inhibitor, partial curve]",
COc1ccc(OC)c(N2Cc3cc(C)c(C)cc3C2)c1,"inconclusive: 31.6 µM [inhibitor, single point]",
COc1ccccc1OC1=NS(=O)(=O)c2ccccc21,,inactive
Cc1ccc(SC/C(O)=C(\C#N)c2nc3ccccc3s2)cc1,,inactive

SMILES,Potency,"activity change, negative = inhibition"
S=C(c1ccc(N2CCCC2)cc1)N1CCCCC1,,inactive
COc1nnc(-c2ccc(C)c(S(=O)(=O)NCCO)c2)c2ccccc12,,inactive
O=C(Cn1ncc2c1-c1ccccc1OC2)Nc1ccc(Cl)cn1,,inconclusive: 52%
O=C1O[C@@H]([C@H](O)[C@H](O)[C@H](O)CO)[C@@H](O)[C@@H]1O,,inactive: -0.833% [at 11 µM]
CSC1=NCCN1C(=O)c1ccc(Br)o1,,inconclusive: 48%
CCN(C(=O)c1cn(C)c(=O)c2cc(OC)c(OC)cc12)c1ccccc1C,,inconclusive: 42%
COC(=O)CSc1nsc(SCC(=O)OC)c1C#N,,inactive
COc1cccc(CSc2nc3sc(C)c(C)c3c(=O)n2Cc2ccco2)c1,"inconclusive: 31.6 µM [activator, single point]",
COc1ccc(N(CC(=O)Nc2ccc3c(c2)OCO3)S(=O)(=O)c2ccccc2)c(OC)c1,,inconclusive: 9.57%
COc1cccc(S(=O)(=O)NCc2ccc(C(=O)NCC3CCCO3)cc2)c1 (stereo unspecified),,inconclusive: 47.6%
Cc1ccc(-c2nnc3sc(-c4ccncc4)nn23)cc1,,inactive
CCNC(=O)N1CCNC(=O)C1CC(=O)OC (stereo unspecified),,inconclusive: 44.1%
C=Cc1c(C)c2cc3[nH]c(cc4nc(cc5nc(cc1[nH]2)C(C)=C5CCC(=O)O)C(CCC(=O)O)=C4C)c(C)c3C=C,"inconclusive: 31.6 µM [activator, single point]",
COc1ccc2[nH]c(=O)c(CN(C(=O)c3ccccn3)c3ccccc3)cc2c1,,inactive
CC(=O)C1=C(O)C=C(c2ccco2)CC1c1ccco1 (stereo unspecified),,inactive
CCOC(=O)C1CCCN(Cc2nc(N)nc(Nc3ccccc3)n2)C1 (stereo unspecified),"inconclusive: 31.6 µM [inhibitor, single point]",
Cc1ccc(S(=O)(=O)N2CCOCC2)cc1C(=O)NCc1ccco1,,inconclusive: 45.9%
O=C(Nc1nccs1)c1ccc(S(=O)(=O)N2CCCCC2)cc1,,inconclusive: 45.3%
Cc1cc(OCc2ccc(F)cc2)nc(-c2ccccc2O)n1,active: 25.1 µM [activator],
